In patent publication US11505815B2, “Compositions and methods related to non-templated enzymatic nucleic acid synthesis” (Nuclera Nucleics Ltd., priority 2017, dated 2022):

Assay: Unmasking of the amine masked group (TCEP, methylamine, potassium carbonate), analysed by LC-MS
Type: physicochemical

## CC(=O)Nc1ncnc2c1ncn2[C@@H]1O[C@H](CO)[C@@H](O)[C@H]1O [N6-acetyl A, N6-acetyl adenosine]
Aqueous 40% methylamine
  Conversion to the unmasked nucleoside by methylamine: loss of the N6-acetyl A peak at 1.8 min and appearance of the A peak
Potassium carbonate (50 mM aqueous, room temperature where stated)
  Conversion to the unmasked nucleoside by potassium carbonate: afforded the deacetylated compound
